This note sets out measurements from article PMC3572085.

Sequences of proteins named here, by UniProt entry; tags and fusion partners are left off.
UniProt O54943: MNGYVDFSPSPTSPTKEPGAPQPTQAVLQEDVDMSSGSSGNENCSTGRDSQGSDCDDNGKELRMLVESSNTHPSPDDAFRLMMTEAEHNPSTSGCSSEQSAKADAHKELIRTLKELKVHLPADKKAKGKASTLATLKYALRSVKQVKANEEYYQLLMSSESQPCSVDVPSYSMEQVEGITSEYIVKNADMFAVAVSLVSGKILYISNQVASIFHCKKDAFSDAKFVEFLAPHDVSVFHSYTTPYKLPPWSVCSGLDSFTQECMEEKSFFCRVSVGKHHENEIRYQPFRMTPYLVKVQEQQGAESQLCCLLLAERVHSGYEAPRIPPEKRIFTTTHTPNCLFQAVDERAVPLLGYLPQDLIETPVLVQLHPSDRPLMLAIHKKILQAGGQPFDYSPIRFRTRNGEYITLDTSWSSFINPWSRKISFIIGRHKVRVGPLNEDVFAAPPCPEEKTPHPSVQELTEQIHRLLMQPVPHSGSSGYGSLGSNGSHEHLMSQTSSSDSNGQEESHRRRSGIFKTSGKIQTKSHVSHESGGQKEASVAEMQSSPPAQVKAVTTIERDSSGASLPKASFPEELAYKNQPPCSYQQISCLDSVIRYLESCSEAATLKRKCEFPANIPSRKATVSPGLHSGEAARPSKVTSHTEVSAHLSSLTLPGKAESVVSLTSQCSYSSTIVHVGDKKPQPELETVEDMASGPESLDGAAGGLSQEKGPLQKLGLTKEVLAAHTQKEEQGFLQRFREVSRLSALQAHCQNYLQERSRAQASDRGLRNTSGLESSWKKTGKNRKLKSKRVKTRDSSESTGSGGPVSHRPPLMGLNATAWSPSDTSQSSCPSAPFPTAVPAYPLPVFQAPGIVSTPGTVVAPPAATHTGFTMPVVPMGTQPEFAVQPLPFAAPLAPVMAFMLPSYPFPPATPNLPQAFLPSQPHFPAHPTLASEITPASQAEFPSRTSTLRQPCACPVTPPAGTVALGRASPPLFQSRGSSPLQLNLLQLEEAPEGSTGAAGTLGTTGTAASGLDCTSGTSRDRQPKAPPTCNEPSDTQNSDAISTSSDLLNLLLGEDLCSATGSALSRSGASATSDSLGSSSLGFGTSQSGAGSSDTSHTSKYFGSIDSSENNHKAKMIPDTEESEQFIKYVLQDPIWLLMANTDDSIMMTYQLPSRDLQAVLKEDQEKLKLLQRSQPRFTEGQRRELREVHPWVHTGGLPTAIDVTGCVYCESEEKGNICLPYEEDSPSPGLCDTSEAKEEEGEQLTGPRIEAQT

Results are given in words; binding and its absence hold for the method and conditions named. In cells and extracts the contact can be indirect. Tags and fused reporters may be left off the sequences shown.

Experiment [1] deals with T1, l-TIM-V5, C-terminally V5 tagged full length mouse TIMELESS, TIM(1–1198)-V5 (mouse) (UniProt Q9R1X4).
T1 sequence: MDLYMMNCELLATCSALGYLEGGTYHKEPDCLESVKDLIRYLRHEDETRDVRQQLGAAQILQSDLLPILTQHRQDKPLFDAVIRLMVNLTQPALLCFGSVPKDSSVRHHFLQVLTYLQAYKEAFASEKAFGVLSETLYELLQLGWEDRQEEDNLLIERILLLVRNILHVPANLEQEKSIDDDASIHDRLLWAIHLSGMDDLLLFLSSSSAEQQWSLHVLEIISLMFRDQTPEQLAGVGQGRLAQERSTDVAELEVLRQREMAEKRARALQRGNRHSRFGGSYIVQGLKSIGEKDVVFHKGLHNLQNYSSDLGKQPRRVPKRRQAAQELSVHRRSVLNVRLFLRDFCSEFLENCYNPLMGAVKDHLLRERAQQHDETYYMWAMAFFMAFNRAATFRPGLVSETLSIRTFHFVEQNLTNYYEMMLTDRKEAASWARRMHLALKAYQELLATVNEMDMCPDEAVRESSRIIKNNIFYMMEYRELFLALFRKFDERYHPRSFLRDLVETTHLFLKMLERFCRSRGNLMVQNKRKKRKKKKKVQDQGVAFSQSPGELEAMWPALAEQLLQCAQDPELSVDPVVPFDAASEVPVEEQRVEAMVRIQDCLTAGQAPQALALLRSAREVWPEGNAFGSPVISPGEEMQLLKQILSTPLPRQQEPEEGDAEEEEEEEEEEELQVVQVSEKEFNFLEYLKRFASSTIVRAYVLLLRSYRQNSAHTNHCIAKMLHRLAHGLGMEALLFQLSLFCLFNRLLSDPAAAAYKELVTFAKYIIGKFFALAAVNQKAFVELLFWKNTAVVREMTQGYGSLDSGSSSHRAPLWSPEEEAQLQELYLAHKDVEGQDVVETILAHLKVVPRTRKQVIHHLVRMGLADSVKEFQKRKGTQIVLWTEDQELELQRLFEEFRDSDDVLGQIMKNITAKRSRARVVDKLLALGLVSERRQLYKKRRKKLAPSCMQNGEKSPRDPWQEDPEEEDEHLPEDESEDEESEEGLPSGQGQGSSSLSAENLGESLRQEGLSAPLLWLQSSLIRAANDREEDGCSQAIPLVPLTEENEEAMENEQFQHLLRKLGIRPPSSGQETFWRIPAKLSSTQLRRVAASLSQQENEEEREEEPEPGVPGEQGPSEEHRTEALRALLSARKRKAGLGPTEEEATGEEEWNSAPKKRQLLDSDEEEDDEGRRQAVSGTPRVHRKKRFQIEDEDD
The experiment in a line: co-IP; COS7 co-expressing l-TIM-V5 and PER2-EGFP (with or without LMB) or PER2NESmut-GFP, or CRY2-V5 and PER2-GFP (positive control); IP anti-V5.

Experiment [2] addresses T1, l-TIM-V5, C-terminally V5 tagged full length mouse TIMELESS, TIM(1–1198)-V5 (mouse). Nature of the experiment: co-IP; COS7 co-expressing all three of HA-CRY1 (WT or mutNLSc), l-TIM-V5 and PER2-GFP; IP of each with anti-HA, anti-V5 or anti-GFP, blots with the corresponding antibodies.

For PER2-GFP (from UniProt O54943 1-1257), the binding entry in experiment [1] and in experiment [2] was “no binding” throughout.
